# System: murine model of ischemia/reperfusion injury (cerebral ischemia)
# Assay: Murine ischemia/reperfusion model: cerebral blood flow by laser-Doppler flowmetry
substance,measurement,setting,value
"Tyr-D-Ala-Phe-Ala-Asp-Val-Ala-Ser-Thr-Ile-Gly-Asp-Phe-Phe-His-Ser-Ile-NH2 (AFADVASTIGDFFHSI; D-Ala, C-terminal amide; printed: Ala-Phe-Ala-Asp-Val-Ala-Ser-Thr-Ile-Gly-Asp-Phe-Phe-His-Ser-Ile-) [Peptide P]",time for cerebral blood flow to return to baseline levels after cessation of ischemia,after 1 hour MCAO,≤ 0.5 h
same,reduction in cerebral blood flow upon induction of ischemia,"sustained for 1 hour during the ischemia, same in control animals",25%
